According to PubChem BioAssay AID258 (DTP/NCI, 2004):
The list is a part of this screen's results and no random one: it is rich in T/C values a quarter to a half above the control, in often repeated tests (any T/C) and in doses without a T/C. Other doses and runs of a compound stand elsewhere. T/C gives the treated animals as a percentage of the vehicle group. Some entries give survivors of the animals treated and no T/C: the source holds a T/C of zero for them, seemingly a mark for toxic or unscored doses. Some doses without a T/C left all or most animals alive at the check, yet need not have been tolerated: the source hardly ever lists a survival T/C far under the control, and the zero likely stands for such cases as well. Survivors were counted at the toxicity check, usually on the fifth day, unless a day is given; later deaths do not show. Schedule codes are those of the source, taken here to give the interval after Q, in days (D) or hours (H), and the number of doses after X. Some schedule codes hold Z or #, which are not explained here. Some entries were tested several times; the results are listed from low to high. Where survival is the endpoint, this PubChem deposit counts one and a half times the control or more as active, and values a quarter to a half above the control carry no call in these data; other NCI protocols may use other cut-offs. Some T/C values carry the count of animals alive at the toxicity check (mostly the fifth day); without a count, all were alive then. Starred links: 1 amine or outer side, 2 acyl side, 3 side chain; linkers in the order of their positions; H or OH if unused. Positions of bridges follow the written chain, without caps; N, C: chain ends. Non-standard residues stand in square brackets, D forms with d. Residues, ends and D or L forms follow the SMILES beside them. Chains are numbered I, II in the order given. Actinocin(9to1) = Cc1c2oc3c(C)ccc(C(=O)[*:1])c3nc-2c(C(=O)[*:2])c(N)c1=O; aThr = C[C@H](O)[C@H](N)C(=O)O; NMeV = CN[C@H](C(=O)O)C(C)C; Sar = CNCC(=O)O

Test system: CD2F1 mice, L1210 leukemia sc, survival T/C
Assay: NCI In Vivo Anticancer Drug Screen. Data for tumor model L1210 Leukemia (subcutaneous) in CD2F1 (CDF1) mice
Settings: T/C endpoint: median survival time, higher T/C = longer survival
How it was run: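 Compound given to mice bearing transplantable tumor. Survival or tumor size then recorded. Result expressed relative to vehicle-dosed control group as T/C.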

[1] = dose: 300.0 mg/kg/injection, schedule: Q01DX Z (sc), vehicle: methylcellulose (MC)
[2] = dose: 500.0 mg/kg/injection, schedule: Q01DX Z (sc), vehicle: methylcellulose (MC)
[3] = dose: 833.0 mg/kg/injection, schedule: Q01DX Z (sc), vehicle: methylcellulose (MC)
[4] = dose: 5.0 mg/kg/injection, schedule: Q01DX Z (sc), vehicle: saline

Cc1ccc(NCCN(C)C)c2c(=O)c3cc(O)ccc3sc12
T/C (dose: 50.0 mg/kg/injection, schedule: Q01DX009 (ip), vehicle: Klucel (hydroxypropylcellulose) (HPC)): 141 % of control | survivor count (dose: 200.0 mg/kg/injection, schedule: Q01DX009 (ip), vehicle: Klucel (hydroxypropylcellulose) (HPC)): 2 of 6 and 4 of 6

CCn1cnc2c(SC)ncnc21
survivor count [1]: 3 of 10 | survivor count [2]: 0 of 10 | survivor count [3]: 0 of 10

Cc1c2oc3c(C)ccc(C(=O)N[C@@H]4C(=O)N[C@H](C(C)C)C(=O)N5CCC[C@H]5C(=O)N(C)CC(=O)N(C)[C@@H](C(C)C)C(=O)O[C@H]4C)c3nc-2c(C(=O)N[C@@H]2C(=O)N[C@H](C(C)C)C(=O)N3CCC[C@H]3C(=O)N(C)CC(=O)N(C)[C@@H](C(C)C)C(=O)O[C@H]2C)c(N)c1=O (I: [aThr][dV]P[Sar][NMeV] / II: [aThr][dV]P[Sar][NMeV]; ester I:1-I:C, II:1-II:C; linker I:N-II:N via Actinocin(9to1))
survivor count (dose: 0.08 mg/kg/injection, schedule: Q01DX Z (sc), vehicle: saline): 3 of 8 | T/C (dose: 0.14 mg/kg/injection, schedule: Q01DX Z (sc), vehicle: other): 137 % of control | survivor count (dose: 0.14 mg/kg/injection, schedule: Q01DX Z (sc), vehicle: saline): 4 of 8 | T/C (dose: 0.15 mg/kg/injection, schedule: Q01DX Z (sc), vehicle: other): 137 % of control | T/C (dose: 0.23 mg/kg/injection, schedule: Q01DX Z (sc), vehicle: other): 137 % of control | survivor count (dose: 0.23 mg/kg/injection, schedule: Q01DX Z (sc), vehicle: saline): 2 of 8 | T/C (dose: 0.25 mg/kg/injection, schedule: Q01DX Z (sc), vehicle: other): 125 % of control | T/C (dose: 0.39 mg/kg/injection, schedule: Q01DX Z (sc), vehicle: other): 125 % of control | survivor count (dose: 0.39 mg/kg/injection, schedule: Q01DX Z (sc), vehicle: saline): 0 of 8 | T/C (dose: 0.39 mg/kg/injection, schedule: Q07DX Z (sc), vehicle: other): 125 % of control | survivor count (dose: 0.65 mg/kg/injection, schedule: Q01DX Z (sc), vehicle: saline): 2 of 8 | T/C (dose: 0.65 mg/kg/injection, schedule: Q07DX Z (sc), vehicle: other): 125 and 137 % of control | survivor count (dose: 1.08 mg/kg/injection, schedule: Q01DX Z (sc), vehicle: saline): 3 of 8 | T/C (dose: 1.08 mg/kg/injection, schedule: Q07DX Z (sc), vehicle: other): 125 and 137 % of control | T/C (dose: 1.8 mg/kg/injection, schedule: Q01DX Z (sc), vehicle: saline): 135 % of control [7 of 8 alive] | survivor count (dose: 1.8 mg/kg/injection, schedule: Q07DX Z (sc), vehicle: other): 5 of 8 | survivor count (dose: 12.0 micrograms/kg/injection, schedule: Q01DX009 (sc), vehicle: saline): 6 of 10 | survivor count (dose: 25.0 micrograms/kg/injection, schedule: Q01DX009 (sc), vehicle: saline): 4 of 10 | survivor count (dose: 400.0 micrograms/kg/injection, schedule: Q01DX009 (ip), vehicle: saline): 9 of 10

C[C@]12C=CC(=O)C=C1CC[C@@H]1[C@@H]2CC[C@]2(C)OC(=O)CC[C@@H]12
survivor count (dose: 108.0 mg/kg/injection, schedule: Q01DX Z (sc), vehicle: methylcellulose (MC)): 1 of 10 | survivor count (dose: 180.0 mg/kg/injection, schedule: Q01DX Z (sc), vehicle: methylcellulose (MC)): 0 of 10 | survivor count [1]: 0 of 10 | survivor count [2]: 0 of 10 | survivor count [3]: 2 of 10

O=C/C(Br)=C(/Br)C(=O)O
survivor count (dose: 23.0 mg/kg/injection, schedule: Q01DX Z (sc), vehicle: other): 6 of 10 | survivor count (dose: 65.0 mg/kg/injection, schedule: Q01DX Z (sc), vehicle: other): 2 of 10

O=C1NC(=O)C2C3C=CC(C12)C1C2C(=O)NC(=O)C2C31 (stereo not given)
T/C (dose: 23.3 mg/kg/injection, schedule: Q01DX009 (ip), vehicle: water): 129 % of control | T/C (dose: 24.5 mg/kg/injection, schedule: Q01DX009 (ip), vehicle: other): 125 % of control | T/C (dose: 25.0 mg/kg/injection, schedule: Q01DX005 (iv), vehicle: other): 126 % of control | T/C (dose: 35.0 mg/kg/injection, schedule: Q01DX005 (iv), vehicle: other): 146 % of control | T/C (dose: 35.0 mg/kg/injection, schedule: Q01DX009 (ip), vehicle: other): 135 % of control | T/C (dose: 50.0 mg/kg/injection, schedule: Q01DX005 (ip), vehicle: saline with Tween-80): 145 % of control | survivor count (dose: 100.0 mg/kg/injection, schedule: Q01DX005 (ip), vehicle: other): 6 of 6 | survivor count (dose: 100.0 mg/kg/injection, schedule: Q01DX005 (iv), vehicle: other): 3 of 6 | survivor count (dose: 138.9 mg/kg/injection, schedule: Q01DX009 (ip), vehicle: clinical formulation): 0 of 6 | T/C (dose: 168.0 mg/kg/injection, schedule: Q01DX009 (oral), vehicle: other): 146 % of control | survivor count (dose: 200.0 mg/kg/injection, schedule: Q01DX005 (ip), vehicle: other): 3 of 6 | survivor count (dose: 200.0 mg/kg/injection, schedule: Q01DX005 (ip), vehicle: saline with Tween-80): 2 of 6 | survivor count (dose: 200.0 mg/kg/injection, schedule: Q01DX005 (sc), vehicle: other): 2 of 6 | survivor count (dose: 400.0 mg/kg/injection, schedule: Q01DX005 (ip), vehicle: saline with Tween-80): 0 of 6 | T/C (dose: 567.0 mg/kg/injection, schedule: Q01DX009 (oral), vehicle: other): 144 % of control

COc1ccc2c(c1)-c1nn(CCCN(C)C)c3ccc([N+](=O)[O-])c(c13)N2
T/C (dose: 12.5 mg/kg/injection, schedule: Q01DX009 (ip), vehicle: water): 125 % of control | survivor count (dose: 50.0 mg/kg/injection, schedule: Q01DX009 (ip), vehicle: water): 9 of 10

COc1cccc2c1C(=O)c1c(O)c3c(c(O)c1C2=O)C[C@@](O)(C(C)=O)C[C@@H]3OC1CC(N)C(O)C(C)O1 (stereo not given in full)
survivor count (dose: 3.0 mg/kg/injection, schedule: Q01DX Z (sc), vehicle: saline): 3 of 8 | survivor count (dose: 3.0 mg/kg/injection, schedule: Q01DX Z (sc), vehicle: water): 3 of 8 | survivor count (dose: 4.0 mg/kg/injection, schedule: Q01DX009 (ip), vehicle: saline): 9 of 10 | survivor count (dose: 4.0 mg/kg/injection, schedule: Q01DX009 (sc), vehicle: saline): 2 of 10 | survivor count [4]: 5 of 8 | survivor count (dose: 5.0 mg/kg/injection, schedule: Q01DX Z (sc), vehicle: water): 3 of 8 | survivor count (dose: 8.0 mg/kg/injection, schedule: Q01DX009 (sc), vehicle: saline): 5 of 10 | survivor count (dose: 8.4 mg/kg/injection, schedule: Q01DX Z (sc), vehicle: saline): 5 of 8 | survivor count (dose: 8.4 mg/kg/injection, schedule: Q01DX Z (sc), vehicle: water): 4 of 8 | T/C (dose: 14.0 mg/kg/injection, schedule: Q01DX Z (sc), vehicle: saline): 130 % of control [7 of 8 alive] | T/C (dose: 14.0 mg/kg/injection, schedule: Q01DX Z (sc), vehicle: water): 125 % of control [6 of 8 alive] | T/C (dose: 23.0 mg/kg/injection, schedule: Q01DX Z (sc), vehicle: saline): 125 % of control [7 of 8 alive] | survivor count (dose: 32.0 mg/kg/injection, schedule: Q01DX009 (sc), vehicle: saline): 6 of 10

O=C(O)c1[nH]c(=O)[nH]c(=O)c1F
T/C [4]: 133 % of control | T/C (dose: 65.0 mg/kg/injection, schedule: Q01DX Z (sc), vehicle: saline): 144 % of control | T/C (dose: 108.0 mg/kg/injection, schedule: Q01DX Z (sc), vehicle: saline): 144 % of control | T/C (dose: 180.0 mg/kg/injection, schedule: Q01DX Z (sc), vehicle: saline): 138 % of control
